{"source": "patent US20150359810A1", "about": "“METHODS FOR TREATING EPSTEIN-BARR VIRUS (EBV) ASSOCIATED CANCERS USING ORAL FORMULATIONS OF 5-AZACYTIDINE” (Celgene Corporation, priority 2014, published 2015)", "tested_on": "Zta", "details": "RAEL cells; 72 hours; AZA 0.3 or 1.0 uM, ROMI 0.5, 1.0, or 2.0 nM, or combination", "note": "For at least one compound, name, drawing or mass did not settle the structure.", "data": [{"smiles": "C/C=C1\\NC(=O)[C@H]2CSSCC/C=C/[C@H](CC(=O)N[C@H](C(C)C)C(=O)N2)OC(=O)[C@H](C(C)C)NC1=O", "note": "[ROMI, romidepsin]", "values": [{"measurement": "Zta expression (Zta band intensity with GAPDH as house-keeping protein)", "result": "did not induce Zta expression"}]}]}
